Test results from PMC9361535.
No constants are given. Whether binding was seen depends on the method and setting. Binding seen in cells or lysates may run through a third protein. Here binding means that the protein was enriched with, or labelled near, the bait; the list need not be complete. Blank lines part the entries; values can stand above or below the molecule they belong to.

Protein sequences, listed by entry. Tags and fused reporters are not part of them. Residues count along the entry.
UniProt Q8TEM1, residues 27-1887: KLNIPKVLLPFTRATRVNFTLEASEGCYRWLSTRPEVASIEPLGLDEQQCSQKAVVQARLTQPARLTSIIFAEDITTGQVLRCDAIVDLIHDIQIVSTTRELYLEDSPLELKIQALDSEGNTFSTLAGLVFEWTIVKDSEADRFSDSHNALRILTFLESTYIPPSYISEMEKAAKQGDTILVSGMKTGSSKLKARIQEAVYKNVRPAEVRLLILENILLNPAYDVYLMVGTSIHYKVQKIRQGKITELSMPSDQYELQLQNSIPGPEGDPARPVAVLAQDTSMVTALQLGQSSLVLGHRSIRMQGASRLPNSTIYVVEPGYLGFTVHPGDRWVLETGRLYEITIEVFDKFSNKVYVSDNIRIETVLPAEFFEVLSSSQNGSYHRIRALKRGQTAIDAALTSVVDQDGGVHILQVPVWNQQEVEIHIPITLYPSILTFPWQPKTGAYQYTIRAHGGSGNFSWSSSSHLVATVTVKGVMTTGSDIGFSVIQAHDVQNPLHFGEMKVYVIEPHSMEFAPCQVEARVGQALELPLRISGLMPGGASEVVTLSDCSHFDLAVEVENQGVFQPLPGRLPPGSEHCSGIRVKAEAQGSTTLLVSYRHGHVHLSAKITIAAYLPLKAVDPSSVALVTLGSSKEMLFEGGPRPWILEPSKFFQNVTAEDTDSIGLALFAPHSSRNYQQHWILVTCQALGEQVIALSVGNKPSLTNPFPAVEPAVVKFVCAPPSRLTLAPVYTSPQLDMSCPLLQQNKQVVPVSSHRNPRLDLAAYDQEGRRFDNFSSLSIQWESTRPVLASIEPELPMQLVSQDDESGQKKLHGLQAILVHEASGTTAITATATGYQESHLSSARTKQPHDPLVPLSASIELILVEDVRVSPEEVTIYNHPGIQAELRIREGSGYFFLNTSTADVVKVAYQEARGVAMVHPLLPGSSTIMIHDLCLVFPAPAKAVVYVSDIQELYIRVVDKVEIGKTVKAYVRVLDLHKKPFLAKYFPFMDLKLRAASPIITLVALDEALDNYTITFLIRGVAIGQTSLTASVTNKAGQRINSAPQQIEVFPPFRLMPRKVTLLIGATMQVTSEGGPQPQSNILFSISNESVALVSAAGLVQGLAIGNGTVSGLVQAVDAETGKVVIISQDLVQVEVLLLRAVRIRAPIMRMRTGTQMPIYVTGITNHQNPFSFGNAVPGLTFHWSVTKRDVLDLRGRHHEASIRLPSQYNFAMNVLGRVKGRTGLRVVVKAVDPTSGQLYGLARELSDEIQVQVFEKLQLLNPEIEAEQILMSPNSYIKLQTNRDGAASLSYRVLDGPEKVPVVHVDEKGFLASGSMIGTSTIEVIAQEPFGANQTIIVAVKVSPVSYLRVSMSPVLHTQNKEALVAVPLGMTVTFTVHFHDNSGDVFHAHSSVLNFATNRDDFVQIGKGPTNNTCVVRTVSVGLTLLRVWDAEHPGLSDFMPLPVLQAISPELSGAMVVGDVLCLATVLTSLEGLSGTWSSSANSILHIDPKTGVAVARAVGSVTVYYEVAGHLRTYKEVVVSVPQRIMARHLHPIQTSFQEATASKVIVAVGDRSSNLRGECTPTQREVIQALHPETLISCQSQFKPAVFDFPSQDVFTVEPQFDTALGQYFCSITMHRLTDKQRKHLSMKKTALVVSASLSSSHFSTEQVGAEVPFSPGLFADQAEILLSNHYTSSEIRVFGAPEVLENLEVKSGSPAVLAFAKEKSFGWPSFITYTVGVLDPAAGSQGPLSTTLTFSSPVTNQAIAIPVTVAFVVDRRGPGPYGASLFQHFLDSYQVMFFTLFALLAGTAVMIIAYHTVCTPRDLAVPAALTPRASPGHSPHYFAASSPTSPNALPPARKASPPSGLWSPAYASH
UniProt O75475: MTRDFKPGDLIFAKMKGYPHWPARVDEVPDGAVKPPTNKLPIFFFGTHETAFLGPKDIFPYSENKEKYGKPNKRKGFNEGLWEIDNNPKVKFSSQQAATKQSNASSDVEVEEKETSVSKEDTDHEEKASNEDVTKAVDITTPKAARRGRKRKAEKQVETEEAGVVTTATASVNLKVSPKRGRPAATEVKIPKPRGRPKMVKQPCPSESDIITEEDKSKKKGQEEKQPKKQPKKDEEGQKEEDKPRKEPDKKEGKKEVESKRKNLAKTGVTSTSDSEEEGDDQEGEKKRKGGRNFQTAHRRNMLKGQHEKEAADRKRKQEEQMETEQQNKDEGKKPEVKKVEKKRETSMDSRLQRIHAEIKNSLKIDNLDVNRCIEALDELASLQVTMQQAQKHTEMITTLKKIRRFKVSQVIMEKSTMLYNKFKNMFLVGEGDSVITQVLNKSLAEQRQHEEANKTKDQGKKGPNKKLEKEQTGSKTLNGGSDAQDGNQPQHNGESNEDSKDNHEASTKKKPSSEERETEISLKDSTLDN
UniProt Q9UBL3: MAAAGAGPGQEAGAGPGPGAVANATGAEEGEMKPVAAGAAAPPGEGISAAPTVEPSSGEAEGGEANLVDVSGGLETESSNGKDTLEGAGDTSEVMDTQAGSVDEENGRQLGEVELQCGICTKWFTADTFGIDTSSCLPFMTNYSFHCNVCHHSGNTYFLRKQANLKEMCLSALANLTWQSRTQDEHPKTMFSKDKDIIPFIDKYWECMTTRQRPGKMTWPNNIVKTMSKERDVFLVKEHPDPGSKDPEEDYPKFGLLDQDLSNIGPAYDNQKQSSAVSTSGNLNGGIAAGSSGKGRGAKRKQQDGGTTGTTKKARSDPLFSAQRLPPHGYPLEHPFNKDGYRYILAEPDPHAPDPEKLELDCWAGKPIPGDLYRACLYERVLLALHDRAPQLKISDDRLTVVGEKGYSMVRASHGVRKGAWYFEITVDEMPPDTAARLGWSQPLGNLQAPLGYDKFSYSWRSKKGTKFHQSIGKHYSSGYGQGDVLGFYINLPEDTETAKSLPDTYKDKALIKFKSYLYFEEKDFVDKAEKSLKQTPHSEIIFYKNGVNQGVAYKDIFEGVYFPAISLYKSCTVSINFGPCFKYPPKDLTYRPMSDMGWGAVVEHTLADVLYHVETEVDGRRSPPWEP
UniProt P01100: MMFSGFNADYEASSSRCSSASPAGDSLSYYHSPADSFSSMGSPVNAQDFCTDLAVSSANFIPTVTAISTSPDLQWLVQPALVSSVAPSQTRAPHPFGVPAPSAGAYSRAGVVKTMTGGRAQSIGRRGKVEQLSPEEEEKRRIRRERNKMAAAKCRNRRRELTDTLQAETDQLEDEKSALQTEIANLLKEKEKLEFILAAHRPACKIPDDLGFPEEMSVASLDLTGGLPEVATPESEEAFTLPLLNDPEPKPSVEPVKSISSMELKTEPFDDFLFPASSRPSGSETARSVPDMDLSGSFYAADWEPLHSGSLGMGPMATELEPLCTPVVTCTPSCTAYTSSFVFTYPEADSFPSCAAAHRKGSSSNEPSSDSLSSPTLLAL
UniProt Q15291: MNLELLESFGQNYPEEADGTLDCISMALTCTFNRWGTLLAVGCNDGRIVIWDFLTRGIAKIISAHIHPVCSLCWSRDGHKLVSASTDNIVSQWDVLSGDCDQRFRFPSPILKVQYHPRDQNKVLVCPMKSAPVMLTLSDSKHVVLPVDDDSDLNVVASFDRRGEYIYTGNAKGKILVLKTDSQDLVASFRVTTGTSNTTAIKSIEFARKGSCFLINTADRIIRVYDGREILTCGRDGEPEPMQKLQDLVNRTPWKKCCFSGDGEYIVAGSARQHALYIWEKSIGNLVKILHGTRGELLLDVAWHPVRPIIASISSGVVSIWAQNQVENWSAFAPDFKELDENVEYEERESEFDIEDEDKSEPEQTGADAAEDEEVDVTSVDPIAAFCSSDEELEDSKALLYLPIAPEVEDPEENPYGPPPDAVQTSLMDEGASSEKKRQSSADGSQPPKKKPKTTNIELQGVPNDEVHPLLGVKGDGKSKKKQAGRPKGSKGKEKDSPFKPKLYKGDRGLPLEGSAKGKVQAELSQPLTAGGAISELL

What was measured:
WT menin-GFP (human) = WT menin-GFP (human) (UniProt O00255); test: affinity purification with mass spectrometry; GFP-Trap agarose beads against control agarose beads; 1 mg nuclear extract of HeLa cells induced with doxycycline for 24 h; binding buffer 20 mM Hepes-KOH pH 7.9, 300 mM NaCl, 20% glycerol, 0.1% NP-40; 4 °C, 1 h; triplicates; label-free LFQ and iBAQ, FDR 0.01, s0 2
menin E366D-GFP (human) [1] = target: menin E366D-GFP (human) (UniProt O00255); test: as above
menin E408Q-GFP (human) = menin E408Q-GFP (human) (UniProt O00255); test: as above
menin E366D-GFP (human) [2] = target: menin E366D-GFP (human) (UniProt O00255); test: affinity purification with mass spectrometry; GFP-Trap agarose beads against control agarose beads; 3 mg cytoplasmic extract of HeLa cells induced with doxycycline for 24 h; binding buffer 20 mM Hepes-KOH pH 7.9, 300 mM NaCl, 20% glycerol, 0.1% NP-40; 4 °C, 1 h; triplicates; label-free LFQ and iBAQ, FDR 0.01, s0 2

Molecule: NUP210 (from UniProt Q8TEM1 27-1887)
binding (menin E366D-GFP (human) [2]): binds

Molecule: PSIP1 (from UniProt O75475 1-530)
binding (WT menin-GFP (human)): binds
binding (menin E366D-GFP (human) [1]): binds
binding (menin E408Q-GFP (human)): binds

B1: OGT (enzyme, UniProt O15294 1-1046)
chain: MASSVGNVADSTEPTKRMLSFQGLAELAHREYQAGDFEAAERHCMQLWRQEPDNTGVLLLLSSIHFQCRRLDRSAHFSTLAIKQNPLLAEAYSNLGNVYKERGQLQEAIEHYRHALRLKPDFIDGYINLAAALVAAGDMEGAVQAYVSALQYNPDLYCVRSDLGNLLKALGRLEEAKACYLKAIETQPNFAVAWSNLGCVFNAQGEIWLAIHHFEKAVTLDPNFLDAYINLGNVLKEARIFDRAVAAYLRALSLSPNHAVVHGNLACVYYEQGLIDLAIDTYRRAIELQPHFPDAYCNLANALKEKGSVAEAEDCYNTALRLCPTHADSLNNLANIKREQGNIEEAVRLYRKALEVFPEFAAAHSNLASVLQQQGKLQEALMHYKEAIRISPTFADAYSNMGNTLKEMQDVQGALQCYTRAIQINPAFADAHSNLASIHKDSGNIPEAIASYRTALKLKPDFPDAYCNLAHCLQIVCDWTDYDERMKKLVSIVADQLEKNRLPSVHPHHSMLYPLSHGFRKAIAERHGNLCLDKINVLHKPPYEHPKDLKLSDGRLRVGYVSSDFGNHPTSHLMQSIPGMHNPDKFEVFCYALSPDDGTNFRVKVMAEANHFIDLSQIPCNGKAADRIHQDGIHILVNMNGYTKGARNELFALRPAPIQAMWLGYPGTSGALFMDYIITDQETSPAEVAEQYSEKLAYMPHTFFIGDHANMFPHLKKKAVIDFKSNGHIYDNRIVLNGIDLKAFLDSLPDVKIVKMKCPDGGDNADSSNTALNMPVIPMNTIAEAVIEMINRGQIQITINGFSISNGLATTQINNKAATGEEVPRTIIVTTRSQYGLPEDAIVYCNFNQLYKIDPSTLQMWANILKRVPNSVLWLLRFPAVGEPNIQQYAQNMGLPQNRIIFSPVAPKEEHVRRGQLADVCLDTPLCNGHTTGMDVLWAGTPMVTMPGETLASRVAASQLTCLGCLELIAKNRQEYEDIAVKLGTDLEYLKKVRGKVWKQRISSPLFNTKQYTMELERLYLQMWEHYAAGNKPDHMIKPVEVTESA
binding (WT menin-GFP (human)): binds
binding (menin E408Q-GFP (human)): binds

The remaining lines, values ahead:

binding (WT menin-GFP (human)): binds
binding (menin E366D-GFP (human) [1]): binds
binding (menin E408Q-GFP (human)): binds
Molecule: ASH2L (from UniProt Q9UBL3 1-628)

binding (WT menin-GFP (human)): binds
binding (menin E366D-GFP (human) [1]): binds
binding (menin E408Q-GFP (human)): binds
Molecule: FOS (from UniProt P01100 1-380)

binding (WT menin-GFP (human)): binds
binding (menin E366D-GFP (human) [1]): binds
binding (menin E408Q-GFP (human)): binds
Molecule: RBBP5 (from UniProt Q15291 1-538)
